The record followed here is patent publication US20120076796A1 (Ablynx, published 2012).

The target of this assay is hIgG+rh B7.2/Fc (human). Kind of assay: condition: 10 ul phage supernatant in 100 ul (one dilution); phage ELISA on coated control proteins (0.2 ug/ml human IgG and 0.2 ug/ml rh B7.2/Fc), anti-M13-HRP, OD 450 nm.

These are yes or no findings as the source states them, for the method shown.

B1: 162-E9 (VHH)
VHH: EVQLVESGGGLVQPGGSLRLSCAASGFTLDDYAIGWFRQAPGKEREAVSCISSVDGSTHYADSVKGRFTISRDNAKDTVYLQMNSLKPEDTAAYYCAVQGYSGGYYYTCEDSADFGFWGQGTQVTVSS
notes: Nanobody
As for B1, the binding result is reported as “no binding”.

B2: 162-H10 (VHH)
VHH: EVQLVESGGGLVQPGGSLRLSCAASGFTLDDYAVGWFRQAPGKEREGVSCIGSSYGSTYYADSVKGRFTISRDNAKNTVYLQMNSLKPEDTAVYYCAVQGYSGGYYYTCEDSADFGFWGQGTQVTVSS
notes: Nanobody
Turning to B2, the binding result was “no binding”.

B3: 162-E1 (VHH)
VHH: EVQLVESGGGLVQAGGSLRLSCAASGSIFSINAMGWYQQAPGKQRELVAFITSVGTTNYADSVKGRFIISRDNAKNTVYLQMNSLKPEDTAVYYCAADLHYSGPNYWGQGTQVTVSS
notes: Nanobody; Footnote: q in FR2 of 162-E1 from an Amber stop codon
Regarding B3, the binding entry is given as “no binding”.

B4: 162-F3 (VHH)
VHH: EVQLVESGGGLVQAGDSLRLSCTTSGRTFSDDTMGWFRQAPRKEREFVAAILWDSIKTYYADSVKGRFTISRDNAKNTVYLQMDSLKPEDTAVYYCAATPTAYGTDWYRNNYHYWGQGTQVTVSS
notes: Nanobody
As to B4, the binding entry is reported as “no binding”.

B5: 163-E7 (VHH)
VHH: EVQLVESGGGLVQPGGSLRLSCAASGFTFSDYSMSWVRQAPGKGLEWVSAISGGGEVTTYADSVKGRFTISRDNAKNTLYLQMSSLKPEDTALYYCAEHLNFYSVSVRSSPTSQGTQVTVSS
notes: Nanobody
B5: the binding result is given as “no binding”.

B6: 162-F11 (VHH)
VHH: EVQLVESGGGLVQAGGSLRLSCAASGFTFDDYAIGWFRQAPGKEREGVACISSSDGSTYYADSVKGRFTISSDNAKNTVYLQMNSLKPEDTAVYSCSAGSVAGCIPYYWGQGTQVTVSS
notes: Nanobody
As to B6, the binding entry is on record as “no binding”.

B7: 163-H8 (VHH)
VHH: EVQLVESGGGLVQPGGSLRLSCAASGFTFGSNGMRWVRQAPGKGPEWVSSINSDGTSTYYAESVKGRFTISRDNAKNTLYLQMHSLKPEDTAVYYCTTTENPNPRGPGTQVTVSS
notes: Nanobody
B7: the binding entry was “no binding”.

B8: 163-G8 (VHH)
VHH: EVQLVESGGGLVQPGGSLRLSCAASGFTFGSNGMRWVRQAPGKGPEWVSSINSDGTSAFYAESVKGRFTISRDNAKNTLYLQMNSLKPEDTAVYYCTTTMNPNPRGQGTQVTVSS
notes: Nanobody
Consider B8, for which the binding entry is reported as “no binding”.

B9: 163-E9 (VHH)
VHH: EVQLVESGGGLVQPGDSLRLSCAASGFTFGSNGMRWVRQAPGKGPEWVSSINSDGTSTYYADSVKGRFTISRDNAKNTLCLQMNSLKPEDTAVYYCTTTEDPYPRGQGTQVTVSS
notes: Nanobody; also called Nanobody 163E9; Tie-2 Nanobody 163E9
For the molecule B9, the binding result is reported as “no binding”.
